## Primary screen of a compound library

Data taken from ChEMBL document CHEMBL3988442, “University of Dundee, Small-Polar-MMV Screening Library” (2021).

A: 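Whole-parasite assay of Trypanosoma brucei over 72 hours; the read-out is not stated. Concentration: 30 µM. Direction is inferred from retests: higher values go with stronger inhibition. Values scatter widely below zero; nearly all retest evidence comes from the higher of the two concentrations used. Of about 64,000 compounds tested this way, about 940 (1.5%) reached 50% or more in at least one test.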
B: 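Cell assay of Leishmania donovani living inside macrophages; the read-out is not stated. Tested at 30 µM. The record gives no direction; compounds that gave an IC50 in retests scored well above the rest, so higher reads as stronger inhibition. About 69,000 compounds were tested under these conditions; 1.5% (about 1,000) showed 50% or more at least once.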

Values are the deposited “Percent Effect”, in %. How 0% and 100% were set is not recorded. Most values in the screen are low, and negative values occur. Compounds were drawn at random from those tested, without regard to their results. Two or more numbers in one place are separate tests of the same structure; such repeats can differ widely. A dash means the value is not listed here; it may have been measured.

SMILES	A	B
CO[C@H]1C[C@@H](O)C12CCN(Cc1nc(C(F)(F)F)no1)CC2	9.851%	4.105%
CC(=O)N(CCc1ccccc1)CC(=O)Nc1ccccc1C#N	-14.14%	-0.4677%
COC[C@]1(O)CCN(C2CCN(c3ccc(OC)cc3)CC2)CC1(C)C	-31.06%	15.1%
CN1CCc2onc(Cn3cccc3)c2C1.O=C(O)C(F)(F)F	-10.79%	-6.598%
O=c1c(C(F)(F)F)cccn1Cc1nnc(-c2cccnc2)o1	-5.861%	44.1%
O=C(CCc1nc(C2CC2)no1)c1ccccc1	-13.69%	5.319%
CCCc1nc(N2CCSCC2)c2c(n1)c(C)nn2CC	-28.96%	-3.064%
COc1ccc(F)cc1C(=O)C1CCCN(Cc2cnc(C)s2)C1 (stereo not drawn)	-28.46%	7.892%
Cn1cc(Br)c(=O)c(NS(=O)(=O)c2cc(F)ccc2Cl)c1	3.189%	5.932%
O=C(O)C(F)(F)F.[H][C@]12CCN(C(=O)CCC)CC[C@@]1([H])S(=O)(=O)CCN2Cc1cccc(C)n1	-35.59%	19.42% and 1.834%
O=C(O)C(F)(F)F.O=C(O)C(F)(F)F.c1cncc(C2COC3(CCN(Cc4cccs4)CC3)C2)c1 (stereo not drawn)	-20.56%	-8.831%
O=C(Nc1nc2c(s1)CN(S(=O)(=O)C1CC1)CC2)c1ccc(Cl)s1	1.841%	-10.32% and -67.81%
CCc1ccsc1C(=O)N1CCCN(Cc2cscn2)CC1	-	14.85%
Cc1nc(N2CCCN(C(=O)c3ccsc3)CC2)c2cnn(C)c2n1	-4.328%	11.79%
Cc1ccc(C(C)NC(=O)Cc2c(C)nc3cc(=O)[nH]n3c2C)s1 (stereo not drawn)	-438.4%	-40.61%
CN(Cc1ccc(Cl)s1)C(=O)NCCC(=O)N1CCCCCC1	-44.2%	3.198%
Cc1nn(C)c(N(C)C)c1CNC1CCc2c(F)cccc21.Cl (stereo not drawn)	28.08%	26.48%
Cc1cc(C(=O)N2C[C@@H](C(=O)O)[C@H](C(C)C)C2)cs1	-15.92%	-13.56%
CC(C)NC(=O)C1CN(C(=O)Nc2ccccc2)CC12CCOCC2 (stereo not drawn)	-45.31%	-21.97%
NC(=O)C1CCN(C(=O)c2ccn(-c3ccc(F)cc3)n2)C1 (stereo not drawn)	-17.15%	5.792%
Cl.O=C(C1CC1)N1CCc2ccccc2C12CCNCC2	-33.01%	11.54%
COc1ccc(C(=O)Nc2c(C(=O)N(C)C)nn(C)c2C)cc1	-15.41%	25.81%
Cn1c(CO)nnc1SCc1c(F)cccc1Br	-48.81%	15.71%
CCc1noc(C)c1C(=O)NCc1ccccn1	-25.26%	20.12%
COc1ccc(CCNC(=O)Cn2ncc3c2c(C)nn3C)cc1	0.617%	-34.14%
CN(C)C(=O)N1Cc2ncn(C)c2C(COCC2CCOCC2)C1.O=C(O)C(F)(F)F (stereo not drawn)	-5.552%	37.92%
Cc1sc2nc(CCN)nc(N3CCS(=O)(=O)CC3)c2c1C	-	0.7518%
O=C(O)C(F)(F)F.O=C(c1ccncc1F)N1CCc2ncnc(C3CC3)c2CC1	-9.314%	4.28%
COCCN1CC[C@]2(CN(C(=O)c3ccc[nH]3)C[C@H]2C)C1=O	-47.18%	4.176%
Cc1nc(C(=O)N2CC[C@@]3(C[C@@H](NS(C)(=O)=O)CCO3)C2)cs1	-224.6%	-15.68%
CCc1nc(C2CCCN(C(=O)C3=NN(C(C)C)C(=O)CC3)C2)no1 (stereo not drawn)	-59.57%	10.61%
COCCC(=O)N1CCn2cc(CN3CCN(C)CC3)nc2C1.O=C(O)C(F)(F)F.O=C(O)C(F)(F)F	-6.756%	-2.287%
[H][C@]12CCN(C(=O)c3ccno3)[C@@]1([H])CC(=O)N2CC1CC1	-44.59%	-3.366%
CCC[C@H]1CN(Cc2ccc(N(C)C)nc2)C[C@@H]1NC(=O)CSC	-17.65%	-9.522%
Cc1noc(C)c1-c1cccc(CC2CCN(C(=O)c3cc[nH]n3)C2)n1 (stereo not drawn)	28.15%	17.57%
Cn1cc(C(=O)N2CCOc3cc(F)ccc32)ccc1=O	-2.928%	-6.484%
Cc1ccc(CSc2nc(N)cc(NCC(=O)N3CCNCC3)n2)cc1	-14.97%	7.183%
CCN1C(=O)CC(c2cccnc2)C12CCN(c1ncc(F)cn1)CC2 (stereo not drawn)	-50.3%	27.68%
CN(C)C(=O)N1CCC2(CC1)CCN(Cc1ccccn1)C2=O.O=C(O)C(F)(F)F	7.411%	36.54%
CN1CCN(c2ccc(NS(=O)(=O)c3ccc(Cl)s3)cc2C(=O)O)CC1	-14.53%	-7.842%
CCOC(C)C(=O)N1CCN(S(C)(=O)=O)CC1 (stereo not drawn)	-28.37%	16.36%
O=C(C1CCCN(Cc2cccc(F)c2)C1)N1CCc2sccc2C1 (stereo not drawn)	-0.1234%	4.982%
Cc1nn(C)c(C)c1C1CCCN1C(=O)c1ccc(Cl)o1 (stereo not drawn)	7.414%	24.68%
CN1CCC(Cc2noc(-c3cccc(OCC(N)=O)c3)n2)CC1	-33.95%	9.894%
O=S(=O)(Nc1ncccc1F)c1cc(Cl)cc2c1OCC2	-17.21%	41.26%
CN(C)C(=O)NC1COC2(CCN(Cc3ccco3)CC2)C1 (stereo not drawn)	-22.84%	31.43%
CCC(Nc1ncccn1)c1ccc(OC)cc1 (stereo not drawn)	62.75%	-5.412%
CC(CNS(N)(=O)=O)c1ccc(F)c(F)c1 (stereo not drawn)	-13.22%	0.7746%
O=C(O)C(F)(F)F.O=C(c1ccc[nH]1)N1CCn2cc(Cn3cccn3)nc2C1	63.53%	51.47%
O=C1NCCN(CC2CC2)C12CCN(Cc1ccc3c(c1)OCO3)CC2	-45.19%	-18.58%
CN1CC2(CCCN(C(=O)Cc3cccc(O)c3)C2)OC1=O (stereo not drawn)	-6.752%	20.06%
Cc1nnc2n1CCN(c1nn3cc(C(C)(C)C)nc3s1)C2	-1.303%	14.99%
Cn1ccnc1CN1CCOC[C@H]1c1nc(C(C)(C)C)co1	-5.129%	8.106%
CC(O)Cc1cn(CC2CCN(C3CCSCC3)CC2)nn1 (stereo not drawn)	-57.64%	12.33%
CNc1cnc(CC2COCCN(CCOc3ccccc3)C2)cn1 (stereo not drawn)	-5.41%	27.35%
CCN(Cc1ccncc1)C1CCCN(C/C=C/c2ccc(F)cc2)C1 (stereo not drawn)	-32.74%	12%
O=C(O)C(F)(F)F.[H][C@@]12CCCO[C@]1([H])[C@H](NC(=O)c1cnoc1C)CN(Cc1ccco1)C2	-61.43%	15.65%
Cn1ncc2c(=O)[nH]c(CN3CCCC3c3ccsc3)nc21 (stereo not drawn)	-18.28%	-0.2099%
COc1cccc(Nc2nc(-c3ccncc3)nc3c2CNCC3)c1.Cl	-	63.42%
CC(C)Cc1noc(-c2ccc(NCc3noc(C(C)C)n3)nc2)n1	-39.45%	0.5724%
Cn1ncc2c(N3CCN4CCCCC4C3)nc(C3CCCC3)nc21 (stereo not drawn)	-37.34%	9.874%
Cn1nc2c(cc1=O)CN(Cc1nc(C3CC3)no1)CC2	7.281%	11.65%
Cc1ncc(CN2CCCC2)c2cc(C(=O)c3ccc(Br)cc3)oc12.Cl	-13.22%	43.45%
COc1c(Br)c(CC2CC(CO)=NO2)c(Br)c2c1OCO2 (stereo not drawn)	-4.091%	8.125%
CC(C)n1cnc2c(-c3cccnc3)nc(C3CCNCC3)cc21.Cl.Cl	-64.28%	-1.008%

Once more, the final 5:

{"smiles": "Cn1ncc2c(N3CCN4CCCCC4C3)nc(C3CCCC3)nc21", "stereo": "stereo not drawn", "A": -37.34, "B": 9.874}
{"smiles": "Cn1nc2c(cc1=O)CN(Cc1nc(C3CC3)no1)CC2", "A": 7.281, "B": 11.65}
{"smiles": "Cc1ncc(CN2CCCC2)c2cc(C(=O)c3ccc(Br)cc3)oc12.Cl", "A": -13.22, "B": 43.45}
{"smiles": "COc1c(Br)c(CC2CC(CO)=NO2)c(Br)c2c1OCO2", "stereo": "stereo not drawn", "A": -4.091, "B": 8.125}
{"smiles": "CC(C)n1cnc2c(-c3cccnc3)nc(C3CCNCC3)cc21.Cl.Cl", "A": -64.28, "B": -1.008}